# From PubChem BioAssay AID1347076 (National Center for Advancing Translational Sciences (NCATS), 2019)
# The campaign covered roughly 400,000 compounds. About 13,000 (3.2%) were called active. The shares of active, inactive and inconclusive entries below differ from those in the screen. Calls come from the whole dose curve; as a rule, active = well fitted cell-killing curve with a large enough effect; inconclusive = small, poorly fitted or top-dose-only effect, or effect the other way; inactive = flat fitted curve, though single readings scatter. Potencies of inconclusive entries are doubtful fits and often do not repeat.
# Experiment: qHTS assay for MDR1-selective chemotherapeutics: Primary screen using the drug-selected MDR subline cells KB-V1; note: nearly all actives have a fitted effect of over 60% in size
# Conditions: KB-V1 MDR cells viability, CellTiter-Glo, 72 h; activity change, negative = cytotoxicity: at 46.1 µM (top of the series)
# Method in brief: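 Readout: CellTiter-Glo luminescence, 10 min after addition. Cells: KB-V1 MDR subline, 72 h at 37 degrees C with compound. Analysis: corrected, normalized data fitted to concentration-effect curves.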
# % is set by controls: 0 for no effect and ±100 for the full control effect; potency is the fitted concentration of half-maximal effect.
SMILES,Potency,"activity change, negative = cytotoxicity"
CCCC1CCC(=NNC(=O)OC(C)(C)C)CC1 (stereo unspecified),"inconclusive: 3.66 µM [rising, full curve]",
CC(C)CN(CC(C)C)C(=O)CN1C(=O)NC2(CCCc3ccccc32)C1=O (stereo unspecified),"inconclusive: 0.58 µM [cytotoxic, full curve]",
Cc1c(O)ccc2c3c(c(=O)oc12)CCC(C)C3 (stereo unspecified),"inconclusive: 29.1 µM [cytotoxic, single point]",
Cc1cccc(N(CC(=O)NC2CCCC2)C(=O)c2cc3cc4cccc(C)c4nc3s2)c1C,"inconclusive: 16.4 µM [cytotoxic, partial curve, poor fit]",
Cc1cccc(-c2ncc(CN3CCN(C4CCCC4)C(CCO)C3)cn2)c1 (stereo unspecified),"inconclusive: 13 µM [cytotoxic, partial curve, poor fit]",
CN(Cc1ccccc1)S(=O)(=O)c1ccc(NC(=S)NC(=O)C2CCCCC2)cc1,"inconclusive: 29.1 µM [cytotoxic, single point]",
S=C(NCc1cccnc1)Nc1ccc2c(c1)OCO2,"inconclusive: 29.1 µM [rising, single point]",
CN(c1ccc([N+](=O)[O-])cc1C(=O)Nc1ccccc1)C1CCCCC1,active: 13 µM,
CN(Cc1ccccc1)c1nc(N)nc(Cl)c1C=O,inactive,
O=C(CSc1nnc(NC(=O)c2ccco2)s1)Nc1cccc(F)c1,inactive,
N#Cc1c(NC(=O)CSc2nc(N)cc(=O)[nH]2)sc2c1CCCCCC2,"inconclusive: 29.1 µM [cytotoxic, single point]",
Clc1ccc(NCc2cccnc2)cc1,inactive,
C=CC[n+]1ccc2ccccc2c1C,"inconclusive: 23.1 µM [rising, single point]",
N#C/C(=C\c1ccccn1)c1nc2ccccc2s1,"inconclusive: 29.1 µM [cytotoxic, single point]",
COc1ccc2nc(N3C(=O)CNC3=S)sc2c1,active: 5.8 µM,
O=C(CN1C(=O)C(=O)N(Cc2ccccc2)C1=O)Nc1ccc(F)c(Cl)c1,inactive,
N#CC(C#N)=C1C=CC=CN1/C(=C\c1ccco1)C(=O)c1ccccc1,"inconclusive: 29.1 µM [cytotoxic, single point]",
CCOc1ccccc1NC(=O)CSc1nccn1-c1ccccc1,"inconclusive: 20.6 µM [cytotoxic, single point]",
COc1ccccc1N1CCN(/N=C/c2cc([N+](=O)[O-])ccc2Cl)CC1,inactive,
Cc1ccc(NS(=O)(=O)c2ccc3c(c2)NC(=O)CCS3)cc1C,"inconclusive: 20.6 µM [cytotoxic, single point]",
CN1c2ccccc2-c2nc3ccccc3n2C1c1ccncc1 (stereo unspecified),inactive,
COc1ccccc1CNC(=O)Cc1ccc(Br)cc1,active: 23.1 µM,
O=C(O)CSCC(=O)Nc1ccc(-c2nc3ccccc3s2)cc1,"inconclusive: 3.26 µM [rising, partial curve, poor fit]",
COc1ccc(NC(=O)C2=Cc3cccc(OC)c3OC2)cc1,"inconclusive: 14.6 µM [cytotoxic, partial curve]",

SMILES,Potency,"activity change, negative = cytotoxicity"
CSc1ccc(CNc2ncc(-c3ccccc3)n2C)cc1,inactive,
Cc1ccsc1/C=N/n1c(COc2ccccc2)n[nH]c1=S,"inconclusive: 16.4 µM [cytotoxic, partial curve]",
CC(=O)Oc1ccccc1Cn1c(C)c(C(=O)NCc2ccccc2C(F)(F)F)sc1=O,"inconclusive: 13 µM [cytotoxic, single point]",
O=C(Nc1cccc(Cl)c1)Nc1nnc([C@H]2C[C@H](O)[C@@H](CO)O2)s1,inactive,
CCOC(=O)c1c(C)nc2sc(C(=O)Nc3ccccc3)c(N)c2c1-c1ccc(OC)cc1,"inconclusive: 2.91 µM [cytotoxic, partial curve, poor fit]",
CCc1ccccc1NC(=O)c1cc2ncc(Br)cn2n1,inactive,
CCOC(=O)c1sc2nc(C(C)C)c3c(c2c1N)CCC3,"inconclusive: 10.3 µM [cytotoxic, partial curve, poor fit]",
Cc1cccc(C2NC(=O)c3ccccc3N2)c1 (stereo unspecified),"inconclusive: 5.8 µM [cytotoxic, full curve, poor fit]",
COC(CNC(=O)c1ccc2nc(-c3cccs3)c(-c3cccs3)nc2c1)OC,"inconclusive: 8.2 µM [cytotoxic, partial curve]",
O=C(Nc1ccn(Cc2ccccc2F)n1)c1ccc(COc2cc(Cl)ccc2Cl)o1,active: 4.11 µM,
Cc1c(Cl)cc(-n2cnnn2)cc1[N+](=O)[O-],inactive,
Cc1cc(NC(=O)CSc2nnc(-c3ccncc3)n2C)n(-c2ccccc2)n1,,inconclusive: 41.5%
COc1ccc(-n2c(COc3ccc(C)cc3)nnc2SCc2ccc(C#N)cc2)cc1,active: 6.51 µM,
CCOc1ccc(NCc2ccccc2OCc2cccc(F)c2)cc1,"inconclusive: 29.1 µM [cytotoxic, single point]",
COc1cccc(N=c2oc3ccccc3cc2-c2nc3ccccc3[nH]2)c1,active: 18.4 µM,
Oc1c(CN2CCOCC2)ccc2ccccc12,"inconclusive: 18.4 µM [rising, single point]",
c1ccc2c(c1)CCc1ccccc1C2=C1CCNCC1,"inconclusive: 20.6 µM [cytotoxic, single point]",
CCC(O)c1cc2c(cc1NC(=O)c1cccc(Br)c1)OCCO2 (stereo unspecified),"inconclusive: 16.4 µM [cytotoxic, partial curve]",
CCCn1c(NC(=O)C2CCN(C(=O)c3ccccc3C)CC2)nc2ccccc21,"inconclusive: 32.6 µM [cytotoxic, single point]",
O=C(c1c[nH]c2ccccc12)C(Cl)c1ccccc1 (stereo unspecified),"inconclusive: 23.1 µM [cytotoxic, single point]",
CN(C)CCCN(C(=O)c1cccs1)c1nc2ccc(F)cc2s1,"inconclusive: 29.1 µM [rising, single point]",
CC(C)Oc1ccc(C(CC(=O)N(C)CCC#N)c2ccc(F)cc2)cc1 (stereo unspecified),"inconclusive: 5.8 µM [cytotoxic, partial curve]",
COc1cc(NC(=S)N(C)C)c(OC)cc1Cl,,inconclusive: -36.7%
CN1CCN(c2oc(-c3ccc(COc4ccc(Cl)cc4)o3)nc2C#N)CC1,inactive,

SMILES,Potency,"activity change, negative = cytotoxicity"
CCc1ccc(NC(=O)CN2C(=O)COc3ccc(S(=O)(=O)N4CCCC4)cc32)cc1,"inconclusive: 23.1 µM [cytotoxic, single point]",
CC(=O)c1c(C)[nH]c(C(=O)OCC(=O)N(C)c2c(N)n(Cc3ccccc3)c(=O)[nH]c2=O)c1C,"inconclusive: 10.3 µM [rising, partial curve, poor fit]",
O=[N+]([O-])c1cc(/C=N/N2CCN(C3c4ccccc4-c4ccccc43)CC2)ccc1Cl,"inconclusive: 20.6 µM [cytotoxic, partial curve, poor fit]",
CC(C)C12CN3CC(C(C)C)(CN(C1)C3c1ccc(Cl)cc1)C2=O (stereo unspecified),inactive,
CC1(C)Nc2ccccc2C(=O)N1c1ccccc1,inactive,
O=C(CN1CCN(c2ccc(O)cc2)CC1)Nc1ccc(SC(F)F)cc1,inactive,
COc1ccccc1NC(=S)N1CCN(Cc2ccc3c(c2)OCO3)CC1,"inconclusive: 18.4 µM [cytotoxic, partial curve, poor fit]",
COc1ccc(S(=O)(=O)NC2(C(F)(F)F)N=C3SCCN3C2=O)cc1 (stereo unspecified),"inconclusive: 20.6 µM [rising, partial curve, poor fit]",
COc1ccc(NC(=O)Cn2cnc3sc(C)c(S(=O)(=O)N4CCN(C)CC4)c3c2=O)cc1Cl,inactive,
COc1ccc(-n2cc3ccc([N+](=O)[O-])cc3n2)cc1,"inconclusive: 29.1 µM [cytotoxic, single point]",
COc1cc(C2N(C)C(=O)c3ccccc3N2C)ccc1O (stereo unspecified),"inconclusive: 18.4 µM [rising, single point]",
Clc1ccccc1CNc1nc2ccccc2n2cnnc12,inactive,
CC(=O)c1c(C)nc(-c2ccc(Cl)cc2)nc1N=CN(C)C,"inconclusive: 20.6 µM [cytotoxic, partial curve, poor fit]",
Cc1ccc(NC(=O)CCN2C(=O)c3ccncc3C2=O)cc1,"inconclusive: 9.2 µM [rising, partial curve]",
COc1cc(CN2CCN(C(=O)CC(C)C)CC2)c([N+](=O)[O-])cc1OC,"inconclusive: 29.1 µM [cytotoxic, single point]",
CCOC(=O)/C(N=Nc1sc(C(=O)OC)c(C)c1C(=O)OCC)=C(\O)CCl,"inconclusive: 11.6 µM [cytotoxic, partial curve]",
Cc1c(C(=O)N2CCc3ccccc32)cnn1C,"inconclusive: 0.517 µM [rising, single point]",
Cc1coc2cc3oc(=O)c(CC(=O)N[C@@H](CC(C)C)C(=O)O)c(C)c3cc12,"inconclusive: 29.1 µM [rising, partial curve, poor fit]",
OCCC1CN(Cc2ccccc2-c2ccco2)CCN1Cc1ccsc1 (stereo unspecified),"inconclusive: 13 µM [cytotoxic, partial curve]",
CS(=O)(=O)NCCSc1cc(C(F)(F)F)nc2ccccc12,inactive,
O=C(c1ccc(F)cc1)C1CCN(S(=O)(=O)c2ccccc2)CC1,"inconclusive: 23.1 µM [cytotoxic, single point]",
COc1ccc(Oc2c(C(F)(F)F)oc3cc(OCC(=O)O)ccc3c2=O)cc1,"inconclusive: 29.1 µM [rising, partial curve, poor fit]",
Cc1c(CNCCc2ccc(Cl)cc2)c(C(=O)O)c(C)n1Cc1ccccc1,"inconclusive: 29.1 µM [rising, single point]",
